Assay results as given in patent US20190010498.

Chains of the proteins cited; added tags and fusions are not shown. A line that says so, or that is headed by a name, gives the form on record, which may keep a tag or linker. Residues count along the entry.
UniProt P42260, 32-908: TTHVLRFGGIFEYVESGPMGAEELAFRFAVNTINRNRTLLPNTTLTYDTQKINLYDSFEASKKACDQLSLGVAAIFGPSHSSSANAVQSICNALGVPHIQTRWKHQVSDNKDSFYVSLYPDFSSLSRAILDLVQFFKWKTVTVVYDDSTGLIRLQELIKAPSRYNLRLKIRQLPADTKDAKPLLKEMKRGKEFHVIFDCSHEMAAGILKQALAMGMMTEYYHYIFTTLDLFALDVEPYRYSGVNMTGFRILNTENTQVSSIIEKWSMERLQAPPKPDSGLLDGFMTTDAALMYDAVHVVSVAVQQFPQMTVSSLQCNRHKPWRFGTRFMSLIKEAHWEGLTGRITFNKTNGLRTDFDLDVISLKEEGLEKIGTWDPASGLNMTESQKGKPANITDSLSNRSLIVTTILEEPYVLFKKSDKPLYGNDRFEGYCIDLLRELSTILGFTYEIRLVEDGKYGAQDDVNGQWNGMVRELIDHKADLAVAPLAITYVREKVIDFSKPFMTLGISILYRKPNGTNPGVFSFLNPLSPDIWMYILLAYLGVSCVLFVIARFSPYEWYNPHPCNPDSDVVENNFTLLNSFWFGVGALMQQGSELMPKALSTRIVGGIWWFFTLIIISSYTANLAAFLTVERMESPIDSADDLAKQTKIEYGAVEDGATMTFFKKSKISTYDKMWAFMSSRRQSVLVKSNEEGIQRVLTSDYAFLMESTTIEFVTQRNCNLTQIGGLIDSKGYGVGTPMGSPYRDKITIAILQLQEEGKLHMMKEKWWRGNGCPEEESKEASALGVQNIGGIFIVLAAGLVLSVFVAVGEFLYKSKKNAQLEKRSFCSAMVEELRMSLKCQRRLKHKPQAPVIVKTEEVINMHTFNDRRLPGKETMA
UniProt P22756, 31-949: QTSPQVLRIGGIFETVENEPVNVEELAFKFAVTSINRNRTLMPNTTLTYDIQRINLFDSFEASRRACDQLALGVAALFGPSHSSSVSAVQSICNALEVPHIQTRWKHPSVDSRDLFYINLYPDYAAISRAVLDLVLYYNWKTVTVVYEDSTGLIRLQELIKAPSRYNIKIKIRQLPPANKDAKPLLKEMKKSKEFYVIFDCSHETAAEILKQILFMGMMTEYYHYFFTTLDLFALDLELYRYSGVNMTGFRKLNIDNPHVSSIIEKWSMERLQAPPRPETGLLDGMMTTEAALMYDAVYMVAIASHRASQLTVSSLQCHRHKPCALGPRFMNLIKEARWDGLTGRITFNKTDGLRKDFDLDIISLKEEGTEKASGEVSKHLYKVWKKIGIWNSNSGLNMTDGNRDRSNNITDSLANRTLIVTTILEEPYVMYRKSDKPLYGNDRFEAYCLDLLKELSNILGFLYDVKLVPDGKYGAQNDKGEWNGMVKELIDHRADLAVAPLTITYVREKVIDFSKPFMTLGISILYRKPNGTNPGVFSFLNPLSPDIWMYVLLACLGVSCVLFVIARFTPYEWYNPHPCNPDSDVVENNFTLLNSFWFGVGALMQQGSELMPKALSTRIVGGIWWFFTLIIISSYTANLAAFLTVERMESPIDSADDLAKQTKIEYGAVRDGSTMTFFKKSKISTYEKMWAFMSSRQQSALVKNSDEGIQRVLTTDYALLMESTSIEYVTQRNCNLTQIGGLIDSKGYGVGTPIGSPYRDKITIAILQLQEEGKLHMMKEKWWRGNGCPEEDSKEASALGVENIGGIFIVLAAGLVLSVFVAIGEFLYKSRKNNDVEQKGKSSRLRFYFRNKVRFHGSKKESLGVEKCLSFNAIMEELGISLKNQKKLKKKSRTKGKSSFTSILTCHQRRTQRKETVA
GluA2Qflip AMPA receptor (homomeric, Q/R site unedited), one chain, as listed by the source: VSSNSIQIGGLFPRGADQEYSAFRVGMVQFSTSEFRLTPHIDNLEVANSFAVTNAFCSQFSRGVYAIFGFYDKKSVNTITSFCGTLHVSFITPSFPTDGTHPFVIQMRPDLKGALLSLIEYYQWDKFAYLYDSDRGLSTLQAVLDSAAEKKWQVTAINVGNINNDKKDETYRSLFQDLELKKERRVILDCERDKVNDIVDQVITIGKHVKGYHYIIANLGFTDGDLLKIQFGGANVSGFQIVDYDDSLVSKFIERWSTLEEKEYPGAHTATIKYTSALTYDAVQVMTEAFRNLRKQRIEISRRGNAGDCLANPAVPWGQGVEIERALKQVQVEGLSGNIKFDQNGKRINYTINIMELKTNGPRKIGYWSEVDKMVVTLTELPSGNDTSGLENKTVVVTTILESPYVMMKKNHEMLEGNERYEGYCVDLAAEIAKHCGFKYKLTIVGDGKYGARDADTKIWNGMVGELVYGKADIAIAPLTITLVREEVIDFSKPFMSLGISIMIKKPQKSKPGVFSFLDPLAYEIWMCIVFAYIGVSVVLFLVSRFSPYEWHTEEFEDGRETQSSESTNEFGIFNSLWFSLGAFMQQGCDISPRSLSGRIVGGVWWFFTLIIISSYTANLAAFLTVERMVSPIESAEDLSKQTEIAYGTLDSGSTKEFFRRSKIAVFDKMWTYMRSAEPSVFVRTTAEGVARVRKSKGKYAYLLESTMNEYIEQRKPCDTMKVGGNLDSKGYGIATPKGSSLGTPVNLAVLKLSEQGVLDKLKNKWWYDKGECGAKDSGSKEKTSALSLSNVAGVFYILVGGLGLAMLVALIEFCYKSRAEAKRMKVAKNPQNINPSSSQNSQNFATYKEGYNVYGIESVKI

Key:
Assay in all cases: inhibition of the protein
[1] = target: GluK2 kainate receptor (UniProt P42260); settings: 2'-F at all A, C and U; G is 2'-OH; 2 uM aptamer, no inhibition; protein on the cell surface; protein details: transiently expressed in HEK-293S cells; label: 32P (hot ligand in binding assay)
[2] = target: GluK1 kainate receptor (UniProt P22756); settings: 2'-F at all A, C and U; G is 2'-OH; 2 uM aptamer, both closed- and open-channel inhibited; protein on the cell surface; protein details: transiently expressed in HEK-293S cells; label: 32P (hot ligand in binding assay)
[3] = tested on: GluA2Qflip AMPA receptor (homomeric, Q/R site unedited); settings: 2'-F at all A, C and U; G is 2'-OH; 1 uM aptamer, 0.1 mM glutamate; functional assay, no inhibition; protein on the cell surface

| Sequence | functional effect of the aptamer [1] | functional effect of the aptamer [2] | functional effect of the aptamer [3] |
| --- | --- | --- | --- |
| GGGAGAAUUCAACUGCCAUCUAGGCACGCUACUGUGAGUGUUGUGAUGGCGGCUGAACGAUCGAAACGGAACUGUAGUACUACAAGCUUCUGGACUCGGU [FN1040] | not active | active |  |
| GGGAGAAUUCAACUGCCAUCUAGGCGGUAGGUGAUCAGCUAGAAUCUCUGAAACGGAACUGUAGUAUAAAAAAAGAGUACUACAAGCUUCUGGACUCGGU [FN1138] |  |  | not active |

For part of these data: Negatives hold for the conditions tested.
